Structures can show the parent of a compound that is named as a salt. The list shows a part of the results. Baselines shift from plate to plate; read single values as rough.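 HEK293 lines stably express B-domain-deleted factor VIII fused to Gaussia luciferase, wild type or a misfolding-prone missense mutant. Scores equal triplicate-well mean luminescence minus DMSO mean, divided by DMSO standard deviation; scores of 2 or higher are hits. Low scores may indicate reduced secretion or worse cell viability.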
Tests used:
[1] = test system: HEK293 WT BDD-FVIII-Gluc; experiment: secreted FVIII-Gluc luciferase Z-score vs DMSO control; higher = more FVIII-Gluc secretion; details: 5 µM; 24 h
[2] = test system: HEK293 p.N1941S BDD-FVIII-Gluc; experiment: as above; details: 5 µM; 24 h

## Cc1nnc(C(=O)NC(C)(C)c2nc(C(=O)NCc3ccc(F)cc3)c(O)c(=O)n2C)o1 [Raltegravir (MK-0518)]
[1]
  secreted FVIII-Gluc luciferase Z-score: inactive: -1.2
[2]
  secreted FVIII-Gluc luciferase Z-score: inactive: -0.504

## NS(=O)(=O)Cc1noc2ccccc12 [Zonisamide]
[1]
  secreted FVIII-Gluc luciferase Z-score: inactive: -4.77
[2]
  secreted FVIII-Gluc luciferase Z-score: inactive: -0.158

## CCC(=O)O[C@]1(C(=O)CCl)[C@@H](C)C[C@H]2[C@@H]3C[C@H](F)C4=CC(=O)C=C[C@]4(C)[C@@]3(F)[C@@H](O)C[C@@]21C [Halobetasol Propionate]
[1]
  secreted FVIII-Gluc luciferase Z-score: active: 6.37
[2]
  secreted FVIII-Gluc luciferase Z-score: active: 3.27

## O=C(c1ccccc1)c1ccc2n1CCC2C(=O)O (stereo not given) [Ketorolac (Toradol)]
[1]
  secreted FVIII-Gluc luciferase Z-score: inactive: 1.13
[2]
  secreted FVIII-Gluc luciferase Z-score: inactive: -3.27

## N#C[C@@H]1C[C@@H]2C[C@@H]2N1C(=O)[C@@H](N)C12CC3CC(CC(O)(C3)C1)C2
[1]
  secreted FVIII-Gluc luciferase Z-score: inactive: -2.98
[2]
  secreted FVIII-Gluc luciferase Z-score: inactive: 0.101

## CC(NCCc1ccc(O)cc1)C(O)c1ccc(O)cc1 (stereo not given) [Ritodrine hydrochloride (Yutopar)]
[1]
  secreted FVIII-Gluc luciferase Z-score: inactive: 1.25
[2]
  secreted FVIII-Gluc luciferase Z-score: inactive: 0.0169

## Cc1ncc([N+](=O)[O-])n1CC(C)O (stereo not given) [Secnidazole (Flagentyl)]
[1]
  secreted FVIII-Gluc luciferase Z-score: inactive: -0.255
[2]
  secreted FVIII-Gluc luciferase Z-score: inactive: -0.00233

## C=CCNC(N)=S [Allylthiourea]
[1]
  secreted FVIII-Gluc luciferase Z-score: inactive: -0.787
[2]
  secreted FVIII-Gluc luciferase Z-score: inactive: -0.16

## Cc1cccc(Nc2ccccc2C(=O)O)c1C [Mefenamic acid]
[1]
  secreted FVIII-Gluc luciferase Z-score: inactive: -0.493
[2]
  secreted FVIII-Gluc luciferase Z-score: inactive: -0.115

## COc1ccc(C2CNC(=O)C2)cc1OC1CCCC1 (stereo not drawn) [S-(+)-Rolipram]
[1]
  secreted FVIII-Gluc luciferase Z-score: inactive: -0.798
[2]
  secreted FVIII-Gluc luciferase Z-score: inactive: -0.0321

## CCc1cc(C(N)=S)ccn1 [Ethionamide]
[1]
  secreted FVIII-Gluc luciferase Z-score: inactive: -1.84
[2]
  secreted FVIII-Gluc luciferase Z-score: inactive: 0.375

## CCn1cc(C(=O)O)c(=O)c2cc(F)c(N3CCNCC3)nc21 [Enoxacin (Penetrex)]
[1]
  secreted FVIII-Gluc luciferase Z-score: inactive: -1.24
[2]
  secreted FVIII-Gluc luciferase Z-score: inactive: -1.17

## CCC(C)n1ncn(-c2ccc(N3CCN(c4ccc(OCC5COC(Cn6cncn6)(c6ccc(Cl)cc6Cl)O5)cc4)CC3)cc2)c1=O (stereo not given) [Itraconazole (Sporanox)]
[1]
  secreted FVIII-Gluc luciferase Z-score: inactive: -3.71
[2]
  secreted FVIII-Gluc luciferase Z-score: inactive: -6.31

## CCOC(=O)C1=C(C)NC(C)=C(C(=O)OC)C1c1cccc(Cl)c1Cl (stereo not given) [Felodipine (Plendil)]
[1]
  secreted FVIII-Gluc luciferase Z-score: inactive: -3.64
[2]
  secreted FVIII-Gluc luciferase Z-score: inactive: -1.36

## Cc1cc(-n2c(=O)[nH]c(=O)n(C)c2=O)ccc1Oc1ccc(SC(F)(F)F)cc1 [toltrazuril]
[1]
  secreted FVIII-Gluc luciferase Z-score: inactive: -0.327
[2]
  secreted FVIII-Gluc luciferase Z-score: inactive: -1.79

## Cc1cnc(C(=O)NCCc2ccc(S(=O)(=O)NC(=O)NC3CCCCC3)cc2)cn1 [Glipizide (Glucotrol)]
[1]
  secreted FVIII-Gluc luciferase Z-score: inactive: -0.453
[2]
  secreted FVIII-Gluc luciferase Z-score: inactive: -0.684

## CCC(C)(C)c1ccc(CC(C)CN2C[C@@H](C)O[C@@H](C)C2)cc1 (stereo not given in full) [Amorolfine Hydrochloride]
[1]
  secreted FVIII-Gluc luciferase Z-score: inactive: 1.6
[2]
  secreted FVIII-Gluc luciferase Z-score: inactive: 0.801

## CC(C)c1nc(CN(C)C(=O)N[C@@H](CCN2CCOCC2)C(=O)N[C@H](CC[C@H](Cc2ccccc2)NC(=O)OCc2cncs2)Cc2ccccc2)cs1 [Cobicistat (GS-9350)]
[1]
  secreted FVIII-Gluc luciferase Z-score: inactive: -3.84
[2]
  secreted FVIII-Gluc luciferase Z-score: inactive: -1.75

## CNC[C@H](O)[C@@H](O)[C@H](O)[C@H](O)CO [Meglumine]
[1]
  secreted FVIII-Gluc luciferase Z-score: inactive: 0.468
[2]
  secreted FVIII-Gluc luciferase Z-score: inactive: 0.643

## COc1cc(C(C)=O)ccc1OCCCN1CCC(c2noc3cc(F)ccc23)CC1 [Iloperidone (Fanapt)]
[1]
  secreted FVIII-Gluc luciferase Z-score: inactive: -4.96
[2]
  secreted FVIII-Gluc luciferase Z-score: inactive: -0.944

## COc1cc(/C=C/C(=O)N2CCN(CC(=O)N3CCCC3)CC2)cc(OC)c1OC [Cinepazide maleate]
[1]
  secreted FVIII-Gluc luciferase Z-score: active: 2.27
[2]
  secreted FVIII-Gluc luciferase Z-score: inactive: 0.258

## O=NO [Sodium nitrite]
[1]
  secreted FVIII-Gluc luciferase Z-score: inactive: -1.24
[2]
  secreted FVIII-Gluc luciferase Z-score: inactive: -0.571

## O=C1C(=O)c2ccccc2C(O)=C1C1CCC(c2ccc(Cl)cc2)CC1 (stereo not given) [Atovaquone (Atavaquone)]
[1]
  secreted FVIII-Gluc luciferase Z-score: inactive: -1.36
[2]
  secreted FVIII-Gluc luciferase Z-score: inactive: 0.0699

## COCCCC/C(=N\OCCN)c1ccc(C(F)(F)F)cc1 [Fluvoxamine maleate]
[1]
  secreted FVIII-Gluc luciferase Z-score: inactive: -4.25
[2]
  secreted FVIII-Gluc luciferase Z-score: inactive: -0.00524

## COc1cc([C@@H]2c3cc4c(cc3[C@@H](O[C@@H]3O[C@@H]5CO[C@@H](C)O[C@H]5[C@H](O)[C@H]3O)[C@H]3COC(=O)[C@H]23)OCO4)cc(OC)c1O [Etoposide (VP-16)]
[1]
  secreted FVIII-Gluc luciferase Z-score: inactive: -4.38
[2]
  secreted FVIII-Gluc luciferase Z-score: inactive: -14

Source: the supplement of paper PMC12024529
